Our source for the binding values is PMC10785435.

Results are given in words; binding and its absence hold for the method and conditions named. Some binding calls cover weakened binding; strength is not graded here. Sequences can lack the tags named with a protein.

Assay [1] concerns the target T1, GST-tagged ANGPTL4 protein (UniProt Q9BY76).
T1 sequence: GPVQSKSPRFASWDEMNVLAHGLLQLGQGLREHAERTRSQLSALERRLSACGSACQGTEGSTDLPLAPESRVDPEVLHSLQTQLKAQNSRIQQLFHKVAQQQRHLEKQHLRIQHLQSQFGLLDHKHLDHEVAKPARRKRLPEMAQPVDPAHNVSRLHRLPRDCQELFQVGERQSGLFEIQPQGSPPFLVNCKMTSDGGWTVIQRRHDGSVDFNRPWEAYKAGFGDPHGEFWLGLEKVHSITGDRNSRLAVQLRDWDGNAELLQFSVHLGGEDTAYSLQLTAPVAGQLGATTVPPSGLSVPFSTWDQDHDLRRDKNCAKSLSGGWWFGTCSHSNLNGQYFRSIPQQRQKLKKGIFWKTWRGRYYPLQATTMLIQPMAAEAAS
Put plainly: pull-down; reciprocal pull-downs of His-rhESM1 and GST-ANGPTL4; Ni Sepharose High-Performance resin, 4 °C overnight, washing, SDS-PAGE and detection with antibody; glutathione-Sepharose 4B beads for GST-ANGPTL4; both purified.

Assay [2] concerns the target T2, His-recombinant human ESM1 (human) (UniProt Q9NQ30).
T2 sequence: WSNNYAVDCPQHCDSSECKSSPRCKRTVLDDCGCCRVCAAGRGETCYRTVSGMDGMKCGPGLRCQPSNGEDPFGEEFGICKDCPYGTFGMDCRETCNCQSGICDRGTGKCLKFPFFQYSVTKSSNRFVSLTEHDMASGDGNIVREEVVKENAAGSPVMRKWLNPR
Described as above.

B1: His-recombinant human ESM1 (protein, UniProt Q9NQ30 20-184)
chain: WSNNYAVDCPQHCDSSECKSSPRCKRTVLDDCGCCRVCAAGRGETCYRTVSGMDGMKCGPGLRCQPSNGEDPFGEEFGICKDCPYGTFGMDCRETCNCQSGICDRGTGKCLKFPFFQYSVTKSSNRFVSLTEHDMASGDGNIVREEVVKENAAGSPVMRKWLNPR
Turning to B1, the binding result in assay [1] is on record as “binds”.

B2: GST-tagged ANGPTL4 protein (protein, UniProt Q9BY76 26-406)
chain: GPVQSKSPRFASWDEMNVLAHGLLQLGQGLREHAERTRSQLSALERRLSACGSACQGTEGSTDLPLAPESRVDPEVLHSLQTQLKAQNSRIQQLFHKVAQQQRHLEKQHLRIQHLQSQFGLLDHKHLDHEVAKPARRKRLPEMAQPVDPAHNVSRLHRLPRDCQELFQVGERQSGLFEIQPQGSPPFLVNCKMTSDGGWTVIQRRHDGSVDFNRPWEAYKAGFGDPHGEFWLGLEKVHSITGDRNSRLAVQLRDWDGNAELLQFSVHLGGEDTAYSLQLTAPVAGQLGATTVPPSGLSVPFSTWDQDHDLRRDKNCAKSLSGGWWFGTCSHSNLNGQYFRSIPQQRQKLKKGIFWKTWRGRYYPLQATTMLIQPMAAEAAS
With B2, the binding entry in assay [2] is “binds”.
